Measured values published in patent publication US20090203678A1, “PHARMACEUTICAL COMPOSITIONS FOR THE TREATMENT OF PROTOZOAN PARASITIC DISEASES” (priority 2006, published 2009).
At least one structure is not confirmed: it was looked up by name or label, or the drawing left a doubt.

Test system: P. falciparum induced endothelial permeability of HLEC monolayer
Experiment: Endothelial barrier integrity assay (Evans Blue diffusion through HLEC monolayer)
Format: cell-based, human
Details: pRBC-exposed HLEC, 30 μM Fasudil and 15 μM LY294002 during 20 hours (FIG. 7)
Description: In order to measure the effect of treatments on pre-exposed pRBCs endothelial cells, we developed a method based on Evans Blue diffusion through endothelial monolayer. Briefly HLEC were raised on Transwell Permeable supports (polyester membrane, 3 μm pore size, 6.5 mm diameter, Corning Incorporated Life Sciences) until confluence in M199 medium. Mature forms of 3D7 P. falciparum clone were then harvested from culture and adjusted at 1% of hematocrit and 50% of parasitemia before 4 hours co-incubation at 37° C. 5% CO2. After PRBC exposure, endothelial cell monolayers were treated 20 hours with Fasudil (1 μM or 30 μM). […] Lower compartments were finally collected for optical density analysis at 630 nm of diffused Evans Blue, using a standard microtiter plate reader (Bio-Tek™ EL311SX, Instruments Inc).
Briefly, P. falciparum cytoadherence effect on endothelial barrier function was assessed by culturing HLEC in Transwell inserts until confluence before exposing them 4 hours to mature forms of pRBC as above. The quantity of Evans Blue collected in lower compartments was markedly higher in pRBC/HLEC co-incubation conditions than in control RBC/HLEC (p<0.01) or non-exposed endothelial cell conditions (p<0.01). […]
Briefly, HLEC were cultured in Transwell inserts until confluence. […] Endothelial barrier integrity was assessed as described above.

O=c1cc(N2CCOCC2)oc2c(-c3ccccc3)cccc12 [LY294002]
effect on Fasudil's restoration of endothelial barrier integrity (Evans Blue OD 630 nm): the effect of Fasudil could be reversed by LY294002
